Assay [1] addresses GST-SiaD (Pseudomonas aeruginosa). Put plainly: pull-down; 50 ug purified GST-SiaD (or GST) on glutathione magnetic beads, blocked with 5% skim milk, incubated with E. coli lysate holding the Flag-tagged protein, 4°C, six washes, western blot; only the target purified. On the technique in general: A western blot detects proteins with antibodies after separation by electrophoresis.

In assay [2] the target is SiaD (full length, sumo-His tag removed) (Pseudomonas aeruginosa). Kind of assay: crystal structure; SiaC-SiaD complex (10 mg/ml) with GpCpp 1:5, sitting drops at 18°C, space group C222(1), 2.65 Å; both purified.
The target is the same in assay [3]. Kind of assay: SEC-MALS; SiaC-SiaD complexes (wild type and SiaD motif mutants) at 2 mg/ml, WTC-030S5 column, 20 mM HEPES pH 7.0, 150 mM NaCl, DTT; both purified. (SEC sorts molecules by how far they enter the pores of the column.)
Assay [4] addresses SiaD^R201A with sumo-His tag (Pseudomonas aeruginosa). Put plainly: SEC; Superdex200, 20 mM HEPES pH 7.0, 300 mM NaCl, 1 mM DTT; SiaD or SiaD R201A incubated with c-di-GMP before complex formation with SiaC; both purified.
Assay [5] addresses SiaD (full length, sumo-His tag removed) (Pseudomonas aeruginosa). Put plainly: SAXS; synchrotron solution SAXS (SEC-SAXS for SiaD), 20 mM HEPES pH 8.0, 150 mM NaCl, 1 mM DTT, 25°C; 8 mg/ml SiaD or 11 mg/ml SiaC-SiaD complex; both purified.
The target in assay [6] is SiaD with sumo-His tag (Pseudomonas aeruginosa). Kind of assay: condition: only SiaD incubated with c-di-GMP before SiaC; SEC; Superdex200, 20 mM HEPES pH 7.0, 300 mM NaCl, 1 mM DTT; SiaD or SiaD R201A incubated with c-di-GMP before complex formation with SiaC; both purified.
Assay [7] shares this target. Kind of assay: SEC; Superdex200, 20 mM HEPES pH 7.0, 300 mM NaCl, 1 mM DTT; proteins alone or preformed SiaC-SiaD complexes, with or without excess c-di-GMP added to the complex; mutant complexes also after overnight standing; both purified.
For assay [8], the target named is SiaD^S50A-Q54A (Pseudomonas aeruginosa). The assay is described as above.
Assay [9] deals with SiaD^S82A-Q86A (Pseudomonas aeruginosa). The assay is described as above.

These are yes or no findings as the source states them, for the method shown. For part of these data: Binding can be weak; no strength is given. Tags and fused reporters may be left off the sequences shown. For part of these data: Binding seen in cells or lysates may run through a third protein.

B1: SiaC-Flag (protein, UniProt A0A072ZHB4 1-126)
chain: MSDLHIPGTQSTPAIQGDWQAGRLSMQGDSYPENSYELFGQVIDWVERFLADGQRPLELDLRLLYLNTSSIKAMMDILDLLEEAHQGGRPVSLRWHYDRRNERVAELAEEFREDCSFPFAIQAHDE
Take B1: the binding result in assay [1] was “binds”.

B2: SiaC (sumo-His tag removed) (protein, UniProt A0A072ZHB4 1-126)
chain: MSDLHIPGTQSTPAIQGDWQAGRLSMQGDSYPENSYELFGQVIDWVERFLADGQRPLELDLRLLYLNTSSIKAMMDILDLLEEAHQGGRPVSLRWHYDRRNERVAELAEEFREDCSFPFAIQAHDE
Turning to B2, the binding result is listed as “binds” in [2]; “binds” in [3]; “binds” in assay [4]; “binds” in [5]; “no binding” in assay [6]; “binds” in [7]. Further, the binding result in assay [8] and in assay [9] was “binds” each time.
